Assay [1] addresses T1, K+/Cl- co-transporter KCC2 (mouse (endogenous in mouse forebrain)) (UniProt Q91V14).
T1 sequence: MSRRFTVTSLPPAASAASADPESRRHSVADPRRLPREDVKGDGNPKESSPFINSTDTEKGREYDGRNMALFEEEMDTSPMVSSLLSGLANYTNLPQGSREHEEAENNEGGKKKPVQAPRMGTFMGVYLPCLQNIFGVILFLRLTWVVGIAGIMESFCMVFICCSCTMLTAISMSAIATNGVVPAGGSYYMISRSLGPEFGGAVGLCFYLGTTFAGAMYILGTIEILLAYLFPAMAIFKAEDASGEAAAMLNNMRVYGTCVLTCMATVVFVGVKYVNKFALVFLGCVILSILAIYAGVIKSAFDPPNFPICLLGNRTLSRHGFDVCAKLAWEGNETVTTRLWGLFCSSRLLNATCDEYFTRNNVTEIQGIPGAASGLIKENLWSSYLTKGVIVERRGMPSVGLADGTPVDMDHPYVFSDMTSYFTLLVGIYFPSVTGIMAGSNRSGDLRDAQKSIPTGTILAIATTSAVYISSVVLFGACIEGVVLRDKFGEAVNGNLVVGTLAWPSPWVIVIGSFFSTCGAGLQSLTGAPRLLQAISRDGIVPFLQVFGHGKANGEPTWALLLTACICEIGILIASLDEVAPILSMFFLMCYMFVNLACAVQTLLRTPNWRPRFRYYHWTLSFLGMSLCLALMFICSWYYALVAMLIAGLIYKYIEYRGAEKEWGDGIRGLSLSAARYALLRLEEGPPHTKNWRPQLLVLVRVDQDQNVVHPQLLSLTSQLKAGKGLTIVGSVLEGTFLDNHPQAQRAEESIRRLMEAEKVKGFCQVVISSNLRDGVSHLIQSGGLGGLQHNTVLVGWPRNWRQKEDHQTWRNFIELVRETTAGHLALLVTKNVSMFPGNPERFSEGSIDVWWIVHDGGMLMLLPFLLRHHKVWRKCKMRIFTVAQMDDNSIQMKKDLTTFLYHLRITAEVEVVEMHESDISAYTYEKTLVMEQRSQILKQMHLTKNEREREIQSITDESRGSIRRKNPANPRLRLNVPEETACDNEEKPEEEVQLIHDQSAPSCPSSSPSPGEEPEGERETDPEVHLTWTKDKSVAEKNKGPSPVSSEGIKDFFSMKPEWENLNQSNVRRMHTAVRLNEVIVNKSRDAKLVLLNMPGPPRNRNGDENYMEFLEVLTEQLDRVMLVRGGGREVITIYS
Briefly: affinity purification with mass spectrometry.

The target of assay [2] is T2, K+/Cl- co-transporter KCC2 (mouse (endogenous in mouse forebrain)), Q91V14.
T2 chain: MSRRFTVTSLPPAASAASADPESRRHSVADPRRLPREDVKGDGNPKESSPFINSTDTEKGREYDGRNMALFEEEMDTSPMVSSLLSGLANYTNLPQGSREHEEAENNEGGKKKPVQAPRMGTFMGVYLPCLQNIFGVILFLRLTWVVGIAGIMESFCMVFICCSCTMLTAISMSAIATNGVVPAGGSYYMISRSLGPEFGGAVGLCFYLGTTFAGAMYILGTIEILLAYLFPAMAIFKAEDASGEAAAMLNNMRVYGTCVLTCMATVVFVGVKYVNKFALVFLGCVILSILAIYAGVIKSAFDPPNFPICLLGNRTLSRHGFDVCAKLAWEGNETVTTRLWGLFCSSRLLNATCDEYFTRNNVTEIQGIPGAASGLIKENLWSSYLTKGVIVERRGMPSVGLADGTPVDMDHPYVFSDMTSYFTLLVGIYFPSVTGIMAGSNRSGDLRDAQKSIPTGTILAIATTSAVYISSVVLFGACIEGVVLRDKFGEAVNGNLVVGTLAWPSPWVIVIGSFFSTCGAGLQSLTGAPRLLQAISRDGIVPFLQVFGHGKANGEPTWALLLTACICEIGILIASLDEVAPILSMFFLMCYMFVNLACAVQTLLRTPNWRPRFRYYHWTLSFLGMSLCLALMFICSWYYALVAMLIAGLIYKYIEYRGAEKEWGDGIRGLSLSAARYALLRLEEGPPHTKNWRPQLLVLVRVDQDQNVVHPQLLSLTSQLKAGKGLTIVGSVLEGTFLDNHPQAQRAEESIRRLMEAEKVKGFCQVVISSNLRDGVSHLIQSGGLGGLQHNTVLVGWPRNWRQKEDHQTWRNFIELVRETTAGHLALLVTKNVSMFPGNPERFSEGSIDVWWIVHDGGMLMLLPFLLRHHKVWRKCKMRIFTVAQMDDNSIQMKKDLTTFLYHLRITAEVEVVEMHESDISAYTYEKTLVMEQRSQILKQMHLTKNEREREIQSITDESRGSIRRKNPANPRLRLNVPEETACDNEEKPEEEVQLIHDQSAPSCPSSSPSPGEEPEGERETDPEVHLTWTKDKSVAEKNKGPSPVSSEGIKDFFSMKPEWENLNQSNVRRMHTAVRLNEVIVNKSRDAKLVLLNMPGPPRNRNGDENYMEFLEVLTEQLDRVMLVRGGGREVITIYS
Briefly: affinity purification with mass spectrometry. The note with it: remark: other sources report otherwise.

Results are given in words; binding and its absence hold for the method and conditions named. Binding seen in cells or lysates may run through a third protein. These calls come from enrichment with a bait or labelling near it, and not all partners need be listed. No binding means not detected with the bait.

This passage reports binding results from publication doi:10.1101/2020.03.02.973859.

B1: SNAP91 (protein, UniProt Q61548 1-901)
chain: MSGQTLTDRIAAAQYSVTGSAVARAVCKATTHEVMGPKKKHLDYLIQATNETNVNIPQMADTLFERATNSSWVVVFKALVTTHHLMVHGNERFIQYLASRNTLFNLSNFLDKSGSHGYDMSTFIRRYSRYLNEKAFSYRQMAFDFARVKKGADGVMRTMVPEKLLKSMPILQGQIDALLEFDVHPNELTNGVINAAFMLLFKDLIKLFACYNDGVINLLEKFFEMKKGQCKDALEIYKRFLTRMTRVSEFLKVAEQVGIDKGDIPDLTQAPSSLMETLEQHLNTLEGKKPGNNEGSGAPSPLSKSSPATTVTSPNSTPAKTIDTSPPVDIFATASAAAPVSSAKPSSDLLDLQPDFSGAAAGAAAPVVPPSGGATAWGDLLGEDSLAALSSVPCEAPISDPFAPEPSPPTTTTEPASASASTTTAVTAVTTEVDLFGDAFAASPGEAPAASEGATAPATPAPVAAALDACSGNDPFAPSEGSAEAAPELDLFAMKPPETSAPVVTPTASTAPPVPATAPSPAPTAVAATAATTTAAAAATTTATTSAAAATTAAAPPALDIFGDLFDSAPEVAAAPKPDAAPSIDLFGTDAFSSPPRGASPVPESSLTADLLSVDAFAAPSPASTASPAKAESSGVIDLFGDAFGSGASETQPAPQAVSSSSASADLLAGFGGSFMAPSTTPVTPAQNNLLQPSFEAAFGTTPSTSSSSSFDPSVFDGLGDLLMPTMAPSGQPAPVSMVPPSPAMAASKGLGSDLDSSLASLVGNLGISGTTSKKGDLQWNAGEKKLTGGANWQPKVTPATWSAGVPPQGTVPPTSSVPPGAGAPSVGQPGAGFGMPPSGTGMTMMSQQPVMFAQPMMRPPFGAAAVPGTQLSPSPTPATQSPKKPPAKDPLADLNIKDFL
For B1, the binding entry in assay [1] is “binds”.

B2: ARHGEF7 (protein, UniProt Q9ES28 1-862)
chain: MNSAEQTVTWLITLGVLESPKKTISDPEVFLQASLKDGVVLCRLLERLLPGTIEKVYPEPRNESECLSNIREFLRACGASLRLETFDANDLYQGQNFNKVLSSLVTLNKVTADIGLGSDSVCARPSSHRIKSFDSLGSQSSHSRTSKLLQSQYRSLDMTDNTNSQLVVRAKFNFQQTNEDELSFSKGDVIHVTRVEEGGWWEGTHNGRTGWFPSNYVREIKPSEKPVSPKSGTLKSPPKGFDTTAINKSYYNVVLQNILETEHEYSKELQSVLSTYLRPLQTSDKLSSANTSYLMGNLEEISSFQQVLVQSLEECTKSPEAQQRVGGCFLSLMPQMRTLYLAYCANHPSAVSVLTEHSEDLGEFMETKGASSPGILVLTTGLSKPFMRLDKYPTLLKELERHMEDYHPDRQDIQKSMTAFKNLSAQCQEVRKRKELELQILTEPIRSWEGDDIKTLGSVTYMSQVTIQCAGSEEKNERYLLLFPNLLLMLSASPRMSGFIYQGKLPTTGMTITKLEDSENHRNAFEISGSMIERILVSCTSQQDLHEWVEHLQKQTKVTSVSNPTIKPHSVPSHTLPSHPLTPSSKHADSKPVALTPAYHTLPHPSHHGTPHTTISWGPLEPPKTPKPWSLSCLRPAPPLRPSAALCYKEDLSKSPKTMKKLLPKRKPERKPSDEEFAVRKSTAALEEDAQILKVIEAYCTSAKTRQTLNSTWQGTDLMHNHVLADDDQSSLDSLGRRSSLSRLEPSDLSEDSEYDSIWTAHSYRMGSASRSRKESAPQVLLPEEEKIIVEETKSNGQTVIEEKSLVDTVYALKDEVQELRQDNKKMKKSLEEEQRARKDLEKLVRKVLKNMNDPAWDETNL
On to B2, for which, in assay [1], the binding entry was “no binding”.

B3: CNTN1 (protein, UniProt P12960 21-1001)
chain: DFTWHRRYGHGVSEEDKGFGPIFEEQPINTIYPEESLEGKVSLNCRARASPFPVYKWRMNNGDVDLTNDRYSMVGGNLVINNPDKQKDAGVYYCLASNNYGMVRSTEATLSFGYLDPFPPEERPEVKVKEGKGMVLLCDPPYHFPDDLSYRWLLNEFPVFITMDKRRFVSQTNGNLYIANVESSDRGNYSCFVSSPSITKSVFSKFIPLIPIPERTTKPYPADIVVQFKDIYTMMGQNVTLECFALGNPVPDIRWRKVLEPMPSTAEISTSGAVLKIFNIQLEDEGLYECEAENIRGKDKHQARIYVQAFPEWVEHINDTEVDIGSDLYWPCIATGKPIPTIRWLKNGYSYHKGELRLYDVTFENAGMYQCIAENAYGSIYANAELKILALAPTFEMNPMKKKILAAKGGRVIIECKPKAAPKPKFSWSKGTEWLVNSSRILIWEDGSLEINNITRNDGGIYTCFAENNRGKANSTGTLVITNPTRIILAPINADITVGENATMQCAASFDPALDLTFVWSFNGYVIDFNKEITHIHYQRNFMLDANGELLIRNAQLKHAGRYTCTAQTIVDNSSASADLVVRGPPGPPGGLRIEDIRATSVALTWSRGSDNHSPISKYTIQTKTILSDDWKDAKTDPPIIEGNMESAKAVDLIPWMEYEFRVVATNTLGTGEPSIPSNRIKTDGAAPNVAPSDVGGGGGTNRELTITWAPLSREYHYGNNFGYIVAFKPFDGEEWKKVTVTNPDTGRYVHKDETMTPSTAFQVKVKAFNNKGDGPYSLVAVINSAQDAPSEAPTEVGVKVLSSSEISVHWKHVLEKIVESYQIRYWAGHDKEAAAHRVQVTSQEYSARLENLLPDTQYFIEVGACNSAGCGPSSDVIETFTRKAPPSQPPRIISSVRSGSRYIITWDHVVALSNESTVTGYKILYRPDGQHDGKLFSTHKHSIEVPIPRDGEYVVEVRAHSDGGDGVVSQVKISGVSTLS
For B3, the binding entry in assay [1] was “binds”.

B4: RCC1 (protein, UniProt Q8VE37 1-421)
chain: MPPKRIAKRRSPPEDAIPKSKKVKVSHRSHNTEPGLVLTLGQGDVGQLGLGESVLERKKPALVPLLQDVVQAEAGGMHTVCLSQSGQVYSFGCNDEGALGRDTSVEGSEMVPGKVELQEKVVQVSAGDSHTAALTEDGRVFLWGSFRDNNGVIGLLEPMKKSMVPVQVQLDAPVVKVASGNDHLVMLTNDGDLYTLGCGEQGQLGRVPELFANRGGRQGLGRLLVPRCVLLKSRGTRGRVRFQDAFCGAYFTFAISREGHVYGFGLSNYHQLGTPGTGSCFIPQNLTSFKNSTKSWVGFSGGQHHTVCMDSEGKAYSLGRAEYGRLGLGEGAEEKSIPTLISRLPVVSSVACGASVGYAVSKDGRVFAWGMGTNYQLGTGQDEDAWSPVEMTGKQLENRVVLTVSSGGQHTVLLVKDQAQS
Take B4: the binding entry in assay [1] is “no binding”.

B5: NETO2, Q8BNJ6 23-525 (protein)
chain: IAVAQKTQDGQNIGIKHIPATQCGIWVRTSNGGHFASPNYPDSYPPNKECIYILEAAPRQRIELTFDERYYIEPSFECRFDHLEIRDGPFGFSPLIDRYCGMKSPALIRSTGRFMWIKFSSDEELEGLGFRAKYSFIPDPDFTYLGGILNPIPDCQFELSGADGIVRSSQVEQEEKTKPGQAVDCIWTIKATPKAKIYLRFLDYQMEHSNECKRNFVAVYDGSSAIENLKAKFCSTVANDVMLKTGVGVIRMWADEGSRLSRFRMLFTSFVEPPCTSSTFFCHSNMCINNSLVCNGVQNCAYPWDENHCKEKKKAGLFEQITKTHGTIIGITSGIVLVLLIISILVQVKQPRKKVMACKTAFNKTGFQEVFDPPHYELFSLREKEISADLADLSEELDNYQKLRRSSTASRCIHDHHCGSQASSVKQSRTNLSSMELPFRNDFAQPQPMKTFNSTFKKSSYTFKQAHECPEQALEDRVMEEIPCEIYVRGRDDSAQASISIDF
For the molecule B5, the binding entry in assay [2] is on record as “no binding”.
